One molecule from patent US20240156901A1, “GAL3BP POLYPEPTIDE COMPOSITIONS AND METHODS FOR TREATMENT OF CANCER AND DETERMINING TREATMENT RESPONSIVENESS” (UNIVERSITY OF PITTSBURGH-OF THE COMMONWEALTH SYSTEM OF …, priority 2021, published 2024) can be followed below.

Sequences of proteins named here, by UniProt entry; tags and fusion partners are left off. A change or cut given only in a name is not applied to a line headed by its entry.
UniProt P36222: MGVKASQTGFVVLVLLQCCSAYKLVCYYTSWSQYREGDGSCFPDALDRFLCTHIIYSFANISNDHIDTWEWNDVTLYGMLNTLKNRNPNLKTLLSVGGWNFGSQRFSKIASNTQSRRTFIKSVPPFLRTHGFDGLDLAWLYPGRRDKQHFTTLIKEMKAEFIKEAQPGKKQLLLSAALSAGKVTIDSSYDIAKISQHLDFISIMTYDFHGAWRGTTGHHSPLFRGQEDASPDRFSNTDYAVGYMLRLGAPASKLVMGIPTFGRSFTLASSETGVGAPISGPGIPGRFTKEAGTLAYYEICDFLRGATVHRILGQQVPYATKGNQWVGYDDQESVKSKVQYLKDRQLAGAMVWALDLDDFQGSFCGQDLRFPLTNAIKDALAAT

The experiment concerns the target Human CHI3L1 Recombinant Protein (R&D Systems, Cat# 2599-CH-050) (human) (UniProt P36222). Description: in vitro Co-IP of recombinant proteins, rGal3BP titrated against rGal3 + rCHI3L1 (FIG. 6E).

Results are given in words; binding and its absence hold for the method and conditions named. In cells and extracts the contact can be indirect. Some results given as binding are weak or reduced against the parent protein; the word gives no strength.

B1: recombinant Gal3BP protein (protein)
chain: VNDGDMRLADGGATNQGRVEIFYRGQWGTVCDNLWDLTDASVVCRALGFENATQALGRAAFGQGSGPIMLDEVQCTGTEASLADCKSLGWLKSNCRHERDAGVVCTNETRSTHTLDLSRELSEALGQIFDSQRGCDLSISVNVQGEDALGFCGHTVILTANLEAQALWKEPGSNVTMSVDAECVPMVRDLLRYFYSRRIDITLSSVKCFHKLASAYGARQLQGYCASLFAILLPQDPSFQMPLDLYAYAVATGDALLEKLCLQFLAWNFEALTQAEAWPSVPTDLLQLLLPRSDLAVPSELALLKAVDTWSWGERASHEEVEGLVEKIRFPMMLPEELFELQFNLSLYWSHEALFQKKTLQALEFHTVPFQLLARYKGLNLTEDTYKPRIYTSPTWSAFVTDSSWSARKSQLVYQSRRGPLVKYSSDYFQAPSDYRYYPYQSFQTPQHPSFLFQDKRVSWSLVYLPTIQSCWNYGFSCSSDELPVLGLTKSGGSDRTIAYENKALMLCEGLFVADVTDFEGWKAAIPSALDTNSSKSTSSFPCPAGHFNGFRTVIRPFYLTNSSGVD
Turning to B1, the binding entry is “binds”.
